Part of at least one peptide drawing is inferred or uncertain, most often the ends. Square brackets hold non-standard residues; d marks the D form. Peptide text beside a SMILES is read from it.
Experiments:
[1] = system: E. coli strain ATCC35218; experiment: Growth inhibition of amoxicillin-resistant E. coli in combination with amoxicillin; assay type: cell-based
[2] = system: SAP231 strain; experiment: Enhancement of amoxicillin inhibition of MRSA growth; assay type: cell-based, Staphylococcus aureus
[3] = system: SAP231; experiment: Enhancement of cefazolin killing of MRSA; assay type: cell-based, Staphylococcus aureus; conditions: with cefazolin (2 and 4 μg/ml)
Description: FIGS. 4A and 4B are graphs showing RI-D-BP100-T61-25 combined with cefazolin and tested against both SAP231 (FIG. 4A) and NRS384 strain (FIG. 4B).
Additionally, the peptide's potency at enhancing cefazolin killing of MRSA was also tested. Cefazolin is a cephalosporin, which are improved β-lactams developed to overcome some of the early penicillin resistance. Cefazolin is a first line therapy for the treatment of Methicillin-susceptible Staphylococcus aureus (MSSA) infections. […] RI-D-BP100-T61-25 was also combined with cefazolin and tested against both SAP231 (FIG. 4A) and NRS384 strain (FIG. 4B).

CC[C@@H](C)[C@@H](NC(=O)[C@@H](CC(C)C)NC(=O)[C@@H](CCCCN)NC(=O)[C@@H](Cc1ccc(O)cc1)NC(=O)[C@@H](CC(C)C)NC(=O)[C@@H](CCCCN)NC(=O)[C@H](NC(=O)[C@@H](Cc1ccc(O)cc1)NC(=O)[C@@H](CC(C)C)NC(=O)[C@@H](C)NC(=O)[C@@H](CCC(N)=O)NC(=O)[C@@H](C)NC(=O)[C@@H](C)NC(=O)[C@@H](C)NC(=O)[C@H](NC(=O)CN)[C@H](C)O)[C@H](C)O)C(=O)N[C@H](CCCCN)C(=O)N[C@H](CCCCN)C(=O)N[C@H](Cc1ccccc1)C(=O)N[C@H](CC(C)C)C(=O)N[C@H](CCCCN)C(=O)N[C@H](CCCCN)C(=O)O [RI-D-BP100-T61-25, dGdTdAdAdAdQdAdLdYdTdKdLdYdKdLdIdKdKdFdLdKdK] (H-G[dT][dA][dA][dA][dQ][dA][dL][dY][dT][dK][dL][dY][dK][dL][dI][dK][dK][dF][dL][dK][dK]-OH; N-terminus and C-terminus assumed)
peptide concentration at which complete inhibition of bacterial growth was achieved ([1]; ATCC35218, with 32 μg/mL amoxicillin (FIG. 2)): 2.5 µM
inhibition of ATCC35218 growth ([1]; in combination with 8 μg/mL amoxicillin (FIG. 2)): significant inhibition of ATCC35218 growth
peptide concentration at which complete inhibition of bacterial growth was achieved ([2]; MRSA, with 16 μg/mL amoxicillin): 5 µM
peptide concentration able to significantly enhance the amoxicillin's inhibition of MRSA growth ([2]; concentration as low as, with amoxicillin): 1.25 µM
peptide concentration able to mostly kill MRSA with cefazolin [3]: ≥ 2.5 µM

— US20260200978A1, “PEPTIDE INHIBITORS OF BETA-LACTAMASE” (priority 2022, published 2026)
